Some of the results follow. Residues, ends and D or L forms follow the SMILES beside them. *: point of attachment. Cbz = O=C(OCc1ccccc1)*

The chains behind the UniProt entries cited, without tags or fusion partners. Where a name states a change or a piece, a line headed by the entry shows the natural chain unless it says otherwise.
UniProt Q6PL24: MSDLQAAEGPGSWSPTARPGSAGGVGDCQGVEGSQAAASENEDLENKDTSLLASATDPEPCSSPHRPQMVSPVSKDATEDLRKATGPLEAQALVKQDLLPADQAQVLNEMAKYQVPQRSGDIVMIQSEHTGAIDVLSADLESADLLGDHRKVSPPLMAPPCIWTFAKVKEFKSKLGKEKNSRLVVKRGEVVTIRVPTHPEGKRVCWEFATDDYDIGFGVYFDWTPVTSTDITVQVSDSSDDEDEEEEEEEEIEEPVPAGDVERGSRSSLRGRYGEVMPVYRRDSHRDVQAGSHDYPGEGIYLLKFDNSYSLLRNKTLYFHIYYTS
UniProt Q0VDI3: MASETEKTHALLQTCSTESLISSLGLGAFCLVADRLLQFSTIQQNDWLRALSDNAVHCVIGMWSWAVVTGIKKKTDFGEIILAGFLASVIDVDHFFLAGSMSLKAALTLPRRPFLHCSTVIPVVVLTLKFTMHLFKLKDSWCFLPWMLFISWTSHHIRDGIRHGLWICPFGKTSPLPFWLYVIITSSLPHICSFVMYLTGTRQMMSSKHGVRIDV
UniProt Q9P2C4: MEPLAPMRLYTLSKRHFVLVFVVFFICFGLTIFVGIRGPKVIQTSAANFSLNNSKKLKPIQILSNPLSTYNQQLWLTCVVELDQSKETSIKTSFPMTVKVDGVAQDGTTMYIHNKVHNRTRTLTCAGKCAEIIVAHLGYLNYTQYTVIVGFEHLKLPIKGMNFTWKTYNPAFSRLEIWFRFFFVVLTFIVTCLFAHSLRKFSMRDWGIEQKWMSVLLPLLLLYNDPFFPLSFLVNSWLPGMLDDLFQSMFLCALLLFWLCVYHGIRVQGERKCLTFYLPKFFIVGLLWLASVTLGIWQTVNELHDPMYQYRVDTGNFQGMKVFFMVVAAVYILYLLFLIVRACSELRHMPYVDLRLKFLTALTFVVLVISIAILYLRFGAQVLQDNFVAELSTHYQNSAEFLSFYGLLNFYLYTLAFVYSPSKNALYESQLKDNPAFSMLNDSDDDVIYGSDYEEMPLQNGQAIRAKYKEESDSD
UniProt Q9P0T7: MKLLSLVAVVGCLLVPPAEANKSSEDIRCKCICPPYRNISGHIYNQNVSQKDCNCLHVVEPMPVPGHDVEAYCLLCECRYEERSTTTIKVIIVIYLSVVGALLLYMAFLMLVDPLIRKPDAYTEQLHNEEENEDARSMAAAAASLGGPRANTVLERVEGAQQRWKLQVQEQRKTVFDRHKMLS
UniProt Q96IK0: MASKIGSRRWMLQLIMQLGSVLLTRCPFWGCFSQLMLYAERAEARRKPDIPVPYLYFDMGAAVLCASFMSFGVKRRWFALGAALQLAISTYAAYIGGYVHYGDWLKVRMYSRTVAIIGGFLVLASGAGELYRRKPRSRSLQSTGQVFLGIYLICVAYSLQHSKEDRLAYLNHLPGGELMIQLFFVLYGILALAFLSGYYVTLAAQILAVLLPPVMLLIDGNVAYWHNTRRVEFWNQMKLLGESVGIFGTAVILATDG
UniProt Q9BVT8: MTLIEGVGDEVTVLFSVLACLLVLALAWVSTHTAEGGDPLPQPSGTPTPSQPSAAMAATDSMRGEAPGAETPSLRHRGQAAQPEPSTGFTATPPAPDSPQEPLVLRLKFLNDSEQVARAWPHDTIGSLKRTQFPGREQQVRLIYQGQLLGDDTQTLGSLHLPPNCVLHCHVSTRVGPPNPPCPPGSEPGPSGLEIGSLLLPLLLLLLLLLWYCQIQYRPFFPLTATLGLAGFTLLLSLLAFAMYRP
UniProt Q9H6X4: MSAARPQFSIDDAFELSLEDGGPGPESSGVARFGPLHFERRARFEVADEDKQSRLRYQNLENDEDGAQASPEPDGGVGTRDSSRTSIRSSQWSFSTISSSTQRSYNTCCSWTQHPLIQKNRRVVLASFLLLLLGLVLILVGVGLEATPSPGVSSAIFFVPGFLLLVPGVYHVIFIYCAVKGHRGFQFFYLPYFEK
UniProt Q5SWH9: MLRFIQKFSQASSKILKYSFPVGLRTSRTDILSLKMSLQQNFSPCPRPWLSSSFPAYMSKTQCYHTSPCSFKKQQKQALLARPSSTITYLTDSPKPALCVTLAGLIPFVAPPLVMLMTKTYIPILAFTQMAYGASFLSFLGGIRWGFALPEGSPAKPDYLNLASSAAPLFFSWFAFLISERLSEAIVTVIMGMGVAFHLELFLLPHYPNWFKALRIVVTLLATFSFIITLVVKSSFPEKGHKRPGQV
UniProt Q96I45: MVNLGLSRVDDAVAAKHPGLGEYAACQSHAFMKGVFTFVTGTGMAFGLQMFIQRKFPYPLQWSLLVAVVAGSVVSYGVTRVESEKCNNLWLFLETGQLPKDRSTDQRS
UniProt O94886: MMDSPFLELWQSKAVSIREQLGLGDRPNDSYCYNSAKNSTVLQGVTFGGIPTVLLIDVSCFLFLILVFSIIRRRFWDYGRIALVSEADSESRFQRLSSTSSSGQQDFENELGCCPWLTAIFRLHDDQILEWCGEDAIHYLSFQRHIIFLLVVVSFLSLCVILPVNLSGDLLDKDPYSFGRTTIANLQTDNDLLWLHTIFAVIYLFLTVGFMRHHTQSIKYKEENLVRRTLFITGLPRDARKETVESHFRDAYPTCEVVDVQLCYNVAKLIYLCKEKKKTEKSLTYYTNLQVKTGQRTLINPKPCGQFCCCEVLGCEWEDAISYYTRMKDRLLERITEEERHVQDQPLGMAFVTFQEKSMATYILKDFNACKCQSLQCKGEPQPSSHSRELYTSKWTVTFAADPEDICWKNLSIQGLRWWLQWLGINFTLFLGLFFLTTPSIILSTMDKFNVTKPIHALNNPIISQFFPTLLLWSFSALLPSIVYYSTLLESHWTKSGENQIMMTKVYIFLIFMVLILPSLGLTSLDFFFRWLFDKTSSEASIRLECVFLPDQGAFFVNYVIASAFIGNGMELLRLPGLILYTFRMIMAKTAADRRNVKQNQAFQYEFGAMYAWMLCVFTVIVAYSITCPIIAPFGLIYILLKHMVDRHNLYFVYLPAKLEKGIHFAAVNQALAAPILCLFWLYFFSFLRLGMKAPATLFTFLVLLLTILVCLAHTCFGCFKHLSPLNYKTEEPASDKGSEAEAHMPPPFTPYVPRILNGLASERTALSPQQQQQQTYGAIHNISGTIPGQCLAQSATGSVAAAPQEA
UniProt A0PK00: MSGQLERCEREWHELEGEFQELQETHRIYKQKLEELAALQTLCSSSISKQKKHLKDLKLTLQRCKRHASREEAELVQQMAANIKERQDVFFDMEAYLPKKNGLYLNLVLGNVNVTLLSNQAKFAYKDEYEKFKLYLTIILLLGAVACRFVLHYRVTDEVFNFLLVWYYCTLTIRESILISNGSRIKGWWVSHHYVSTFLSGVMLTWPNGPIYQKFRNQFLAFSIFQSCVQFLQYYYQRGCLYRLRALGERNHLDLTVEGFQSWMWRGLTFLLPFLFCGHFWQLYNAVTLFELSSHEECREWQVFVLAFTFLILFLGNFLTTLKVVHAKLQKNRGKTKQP
UniProt Q8TDI8: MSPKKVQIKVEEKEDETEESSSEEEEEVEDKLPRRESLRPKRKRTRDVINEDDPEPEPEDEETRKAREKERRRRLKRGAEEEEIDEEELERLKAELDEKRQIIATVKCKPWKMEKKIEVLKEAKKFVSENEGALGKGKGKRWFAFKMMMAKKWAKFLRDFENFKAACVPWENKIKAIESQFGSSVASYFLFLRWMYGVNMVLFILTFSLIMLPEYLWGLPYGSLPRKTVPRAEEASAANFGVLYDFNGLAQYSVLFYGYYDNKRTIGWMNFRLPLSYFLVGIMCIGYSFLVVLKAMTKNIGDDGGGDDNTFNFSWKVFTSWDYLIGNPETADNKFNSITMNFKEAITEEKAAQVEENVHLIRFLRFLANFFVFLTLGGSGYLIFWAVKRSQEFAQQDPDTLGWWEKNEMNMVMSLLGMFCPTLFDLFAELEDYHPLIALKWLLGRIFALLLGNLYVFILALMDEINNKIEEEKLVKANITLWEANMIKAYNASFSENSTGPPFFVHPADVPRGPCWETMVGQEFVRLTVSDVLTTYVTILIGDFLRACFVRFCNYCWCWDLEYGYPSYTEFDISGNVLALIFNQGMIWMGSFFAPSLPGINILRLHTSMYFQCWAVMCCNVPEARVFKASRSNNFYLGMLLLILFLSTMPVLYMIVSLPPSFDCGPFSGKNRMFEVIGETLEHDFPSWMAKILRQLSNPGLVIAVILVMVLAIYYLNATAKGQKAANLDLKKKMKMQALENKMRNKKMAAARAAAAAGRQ
UniProt Q9P0S9: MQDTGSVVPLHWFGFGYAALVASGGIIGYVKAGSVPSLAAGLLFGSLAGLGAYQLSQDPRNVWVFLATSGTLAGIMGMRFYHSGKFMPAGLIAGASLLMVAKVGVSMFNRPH
UniProt Q9BZW5, whole entry, looked up: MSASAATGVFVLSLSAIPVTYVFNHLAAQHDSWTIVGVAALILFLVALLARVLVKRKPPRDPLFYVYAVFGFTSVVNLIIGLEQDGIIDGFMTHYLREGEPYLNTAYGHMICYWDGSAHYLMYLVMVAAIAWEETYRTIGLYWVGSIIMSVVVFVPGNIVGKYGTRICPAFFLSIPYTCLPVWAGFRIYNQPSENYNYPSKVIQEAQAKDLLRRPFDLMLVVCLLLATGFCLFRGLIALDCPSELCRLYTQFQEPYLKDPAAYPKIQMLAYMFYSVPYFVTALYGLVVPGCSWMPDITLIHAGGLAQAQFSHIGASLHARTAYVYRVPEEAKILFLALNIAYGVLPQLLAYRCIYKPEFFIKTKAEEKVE
UniProt O14763, whole entry, looked up: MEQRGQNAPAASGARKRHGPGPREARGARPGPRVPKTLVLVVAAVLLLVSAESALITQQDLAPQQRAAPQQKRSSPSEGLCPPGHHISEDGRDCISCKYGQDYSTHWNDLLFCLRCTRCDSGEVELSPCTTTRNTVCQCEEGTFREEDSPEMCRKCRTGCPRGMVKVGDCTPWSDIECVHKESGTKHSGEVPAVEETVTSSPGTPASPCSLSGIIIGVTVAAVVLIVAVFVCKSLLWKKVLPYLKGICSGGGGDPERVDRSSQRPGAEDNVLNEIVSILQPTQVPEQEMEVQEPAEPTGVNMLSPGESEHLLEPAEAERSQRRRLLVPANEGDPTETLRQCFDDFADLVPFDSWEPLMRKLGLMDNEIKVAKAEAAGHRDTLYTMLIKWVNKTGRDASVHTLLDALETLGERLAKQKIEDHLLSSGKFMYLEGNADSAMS
UniProt Q7Z403: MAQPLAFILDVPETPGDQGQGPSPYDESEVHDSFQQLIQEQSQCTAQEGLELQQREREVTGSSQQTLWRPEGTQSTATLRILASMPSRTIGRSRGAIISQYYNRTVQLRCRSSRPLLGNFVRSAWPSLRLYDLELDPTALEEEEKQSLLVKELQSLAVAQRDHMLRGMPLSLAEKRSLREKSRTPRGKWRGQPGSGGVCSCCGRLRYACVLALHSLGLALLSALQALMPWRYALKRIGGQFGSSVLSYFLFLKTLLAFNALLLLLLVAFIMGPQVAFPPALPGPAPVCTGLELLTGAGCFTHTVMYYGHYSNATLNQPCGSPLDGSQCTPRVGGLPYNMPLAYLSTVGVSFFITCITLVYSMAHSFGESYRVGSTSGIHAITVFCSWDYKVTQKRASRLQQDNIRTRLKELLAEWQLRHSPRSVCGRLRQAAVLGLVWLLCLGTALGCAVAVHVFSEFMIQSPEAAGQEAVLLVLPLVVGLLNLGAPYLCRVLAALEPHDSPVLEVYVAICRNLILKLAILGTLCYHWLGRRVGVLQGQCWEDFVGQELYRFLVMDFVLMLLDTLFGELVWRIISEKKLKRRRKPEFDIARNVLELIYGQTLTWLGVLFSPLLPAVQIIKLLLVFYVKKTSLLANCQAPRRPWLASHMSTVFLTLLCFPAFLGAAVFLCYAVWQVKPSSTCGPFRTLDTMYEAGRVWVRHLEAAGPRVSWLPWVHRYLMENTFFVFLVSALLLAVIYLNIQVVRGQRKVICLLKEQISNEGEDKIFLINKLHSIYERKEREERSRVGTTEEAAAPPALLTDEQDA
UniProt Q8IY95: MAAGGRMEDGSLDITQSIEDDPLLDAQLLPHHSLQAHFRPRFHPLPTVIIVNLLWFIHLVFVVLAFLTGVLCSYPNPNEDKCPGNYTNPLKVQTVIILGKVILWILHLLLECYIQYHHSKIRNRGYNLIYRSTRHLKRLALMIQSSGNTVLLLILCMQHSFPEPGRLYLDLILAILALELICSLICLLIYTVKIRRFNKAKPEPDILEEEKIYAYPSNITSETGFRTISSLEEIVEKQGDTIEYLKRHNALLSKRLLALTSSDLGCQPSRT
UniProt Q9Y3Q3: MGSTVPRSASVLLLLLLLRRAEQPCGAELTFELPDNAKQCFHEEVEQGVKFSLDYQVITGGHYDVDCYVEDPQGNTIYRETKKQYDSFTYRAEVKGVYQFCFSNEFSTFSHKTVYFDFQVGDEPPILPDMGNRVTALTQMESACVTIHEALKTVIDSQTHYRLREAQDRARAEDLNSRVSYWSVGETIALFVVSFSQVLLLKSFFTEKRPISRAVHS
UniProt Q9NWH2: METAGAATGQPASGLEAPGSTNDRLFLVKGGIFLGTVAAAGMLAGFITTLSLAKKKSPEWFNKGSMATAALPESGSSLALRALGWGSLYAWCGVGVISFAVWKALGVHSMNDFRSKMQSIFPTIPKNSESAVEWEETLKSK

log2 fold change data for 39 targets are collected here from the supplement of paper PMC10849652.

Compound in one test: CC(C)C[C@@H](C=O)NC(=O)[C@H](CC(C)C)NC(=O)[C@H](CC(C)C)NC(=O)OCc1ccccc1
The experiment in a line: log2 fold change, soluble protein after heating vs DMSO (PISA); higher = thermal stabilisation; K562 cells, 10 uM, 30 min; active = over 0.2 and 3.5 SD of the protein, either way, in both replicates (recomputed). A digest of the protocol: (§1)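 Thermal stability values are relative to control samples and come from duplicates. They are expressed as log2 fold changes. For measurement, K562 cells (2×10^6 cells/mL) received 10 μM compound for 30 min, and aliquots were heated for 3 min over 48°C-58°C, pooled, and extracted at 4°C in PBS with 0.5% NP-40. Soluble protein, the supernatant after 21,000xg for 90 min, was quantified by TMTpro 16plex LC-MS/MS with equalised channel sums.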
For TMED8 (UniProt Q6PL24), the log2 fold change was inactive: 0.029.
The same measure, in the same setting: with TMEM267 (UniProt Q0VDI3) the figure was inactive: 0.009; with TMEM181 (UniProt Q9P2C4), inactive: 0.013.
Turning to TMEM9 (UniProt Q9P0T7), the log2 fold change is inactive: 0.064.
On the same count and under the same terms, with TMEM189-UBE2V1 (UniProt I3L0A0) the figure was inactive: -0.028.
With TMEM101 (UniProt Q96IK0), the log2 fold change is inactive: 0.002.
The same measure, in the same setting: with TMUB1 (UniProt Q9BVT8) the figure was inactive: -0.096.

Compound in the next test: CC(C)N(C[C@H]1O[C@@H](n2cnc3c(N)ncnc32)[C@H](O)[C@@H]1O)[C@H]1C[C@@H](CCc2nc3cc(C(C)(C)C)ccc3[nH]2)C1 [pinometostat]
The description is as above. A digest of the protocol: as §1
As for TMEM134 (UniProt Q9H6X4), the log2 fold change is inactive: -0.126.
On the same count and under the same terms, to TMEM69 (UniProt Q5SWH9) belongs inactive: 0.02; to TMEM177 (UniProt Q53S58), inactive: -0.02; to TMEM141 (UniProt Q96I45), inactive: -0.046.
With TMEM63A (UniProt O94886), the log2 fold change is inactive: -0.021.
As for TMEM120B (UniProt A0PK00), the log2 fold change is inactive: -0.054.
Still for that read-out and setting: to TMC1 (UniProt Q8TDI8) belongs inactive: -0.011; to TMEM223 (UniProt A0PJW6), inactive: -0.019.
On the same count and under the same terms, with TNFRSF10A (UniProt O00220) the figure was inactive: -0.002; with TMEM9B (UniProt Q9NQ34), inactive: 0.015.
With TMEM87B (UniProt Q96K49), the log2 fold change was inactive: 0.065.
Take TMEM161B (UniProt Q8NDZ6): the log2 fold change was inactive: -0.002.
Still for that read-out and setting: with TMEM14C (UniProt Q9P0S9) the figure was inactive: 0.088; with TM6SF1 (UniProt Q9BZW5), inactive: -0.011; with TMEM104 (UniProt Q8NE00), inactive: -0.106.
For the target TNFAIP3 (UniProt P21580), the log2 fold change was inactive: 0.048.
Consider TNFRSF10B (UniProt O14763), for which the log2 fold change is inactive: 0.011.
For TM7SF3 (UniProt Q9NS93), the log2 fold change is inactive: -0.036.
The same measure, in the same setting: to TMC6 (UniProt Q7Z403) belongs inactive: 0.096; to TMEM192 (UniProt Q8IY95), inactive: 0.051.
For the target TMEM41A (UniProt Q96HV5), the log2 fold change was inactive: -0.06.
TMEM164 (UniProt Q5U3C3): the log2 fold change is inactive: -0.073.
The same measure, in the same setting: to TLK2 isoform 2 (UniProt Q86UE8) belongs inactive: -0.004; to TMED8 (UniProt Q6PL24), inactive: -0.084.
For TMEM267 (UniProt Q0VDI3), the log2 fold change was inactive: -0.058.
Regarding TMEM181 (UniProt Q9P2C4), the log2 fold change is inactive: -0.071.
Consider TMEM106B (UniProt Q9NUM4), for which the log2 fold change was inactive: 0.085.
TMEM9 (UniProt Q9P0T7): the log2 fold change is inactive: -0.042.
For TMED3 (UniProt Q9Y3Q3), the log2 fold change is inactive: -0.037.
The same measure, in the same setting: with TMEM189-UBE2V1 (UniProt I3L0A0) the figure was inactive: -0.046; with TMEM101 (UniProt Q96IK0), inactive: 0.031.

Compound in a further test: CC1=C(C(CC(=O)N1)C2=CC=C(C=C2)C(F)(F)F)C(=O)NC3=C(C=C4C(=C3)C=NN4)F
Described as above. A digest of the protocol: as §1
Take TMEM69 (UniProt Q5SWH9): the log2 fold change is inactive: 0.089.
On the same count and under the same terms, to TMEM141 (UniProt Q96I45) belongs inactive: -0.042; to TMEM63A (UniProt O94886), inactive: -0.027.
Still for that read-out and setting: with TMEM120B (UniProt A0PK00) the figure was inactive: -0.241.
On the same count and under the same terms, with TMEM147 (UniProt Q9BVK8) the figure was inactive: 0.056.
TMC1 (UniProt Q8TDI8): the log2 fold change is inactive: -0.005.
Consider TLR9 isoform 4 (UniProt Q9NR96), for which the log2 fold change is inactive: -0.005.
With TMEM242 (UniProt Q9NWH2), the log2 fold change was inactive: -0.073.
On the same count and under the same terms, to TMEM14C (UniProt Q9P0S9) belongs inactive: -0.257.
Consider TM6SF1 (UniProt Q9BZW5), for which the log2 fold change is inactive: 0.033.
The same measure, in the same setting: with TNFAIP3 (UniProt P21580) the figure was inactive: -0.206.
The same measure, in the same setting: with TNFRSF10B (UniProt O14763) the figure was inactive: 0.057; with TMC6 (UniProt Q7Z403), inactive: 0.088.
With TMEM123 (UniProt Q8N131), the log2 fold change is inactive: 0.
Still for that read-out and setting: with TMED8 (UniProt Q6PL24) the figure was inactive: 0.182; with TMED3 (UniProt Q9Y3Q3), inactive: 0.011; with TMEM101 (UniProt Q96IK0), inactive: 0.008.
Take TMUB1 (UniProt Q9BVT8): the log2 fold change is inactive: 0.01.

Compound in a further test: CC1=C(C2=C(C=C1)C(=O)C3=CC=CC=C3N2CCCN)C
Described as above. The method in brief: as §1
For the target TMEM69 (UniProt Q5SWH9), the log2 fold change was inactive: 0.053.
For the target TMEM177 (UniProt Q53S58), the log2 fold change was inactive: 0.028.
Regarding TMEM141 (UniProt Q96I45), the log2 fold change was inactive: 0.047.
In the case of TMEM63A (UniProt O94886), the log2 fold change is inactive: 0.039.
As to TMEM120B (UniProt A0PK00), the log2 fold change was inactive: 0.013.
Still for that read-out and setting: with TMEM147 (UniProt Q9BVK8) the figure was inactive: -0.062; with TMC1 (UniProt Q8TDI8), inactive: -0.027.
For the target TLR9 isoform 4 (UniProt Q9NR96), the log2 fold change was inactive: 0.11.
In the case of TMEM223 (UniProt A0PJW6), the log2 fold change is inactive: 0.042.
Still for that read-out and setting: with TMEM242 (UniProt Q9NWH2) the figure was inactive: 0.114.
The same measure, in the same setting: with TNFRSF10A (UniProt O00220) the figure was inactive: 0.021.
Turning to TMEM9B (UniProt Q9NQ34), the log2 fold change is inactive: 0.038.
On the same count and under the same terms, with TMEM268 isoform 3 (UniProt Q5VZI3) the figure was inactive: 0.014.
Same read-out and setting: with TMEM87B (UniProt Q96K49) the figure was inactive: 0.029.
On the same count and under the same terms, to TMEM161B (UniProt Q8NDZ6) belongs inactive: 0.022; to TMEM14C (UniProt Q9P0S9), inactive: 0.08; to TM6SF1 (UniProt Q9BZW5), inactive: -0.044.
Regarding TNFRSF10B (UniProt O14763), the log2 fold change is inactive: -0.061.
Still for that read-out and setting: to TM7SF3 (UniProt Q9NS93) belongs inactive: 0.057; to TMC6 (UniProt Q7Z403), inactive: 0.004; to TMEM192 (UniProt Q8IY95), inactive: -0.019.
Turning to TMEM41A (UniProt Q96HV5), the log2 fold change was inactive: 0.151.
Take TMEM123 (UniProt Q8N131): the log2 fold change is inactive: -0.07.
For TMBIM1 (UniProt Q969X1), the log2 fold change was inactive: 0.089.
For TMEM219 (UniProt Q86XT9), the log2 fold change was inactive: -0.134.
On the same count and under the same terms, with TMEM164 (UniProt Q5U3C3) the figure was inactive: 0.066.
In the case of TLK2 isoform 2 (UniProt Q86UE8), the log2 fold change was active: 0.282.
For the target TMED8 (UniProt Q6PL24), the log2 fold change was inactive: -0.04.
Regarding TMEM267 (UniProt Q0VDI3), the log2 fold change was inactive: 0.074.
Regarding TMEM181 (UniProt Q9P2C4), the log2 fold change is inactive: -0.075.
Still for that read-out and setting: with TMEM106B (UniProt Q9NUM4) the figure was inactive: -0.027.
On the same count and under the same terms, to TMEM9 (UniProt Q9P0T7) belongs inactive: -0.013.
For TMED3 (UniProt Q9Y3Q3), the log2 fold change was inactive: 0.086.
Still for that read-out and setting: with TMEM189-UBE2V1 (UniProt I3L0A0) the figure was inactive: 0.037.
Regarding TMEM101 (UniProt Q96IK0), the log2 fold change is inactive: -0.067.
The same measure, in the same setting: with TMUB1 (UniProt Q9BVT8) the figure was inactive: 0.098.
